Binding data for 1 substance are collected here from article PMC7995658.

Protein sequences, listed by entry. Tags and fused reporters are not part of them.
UniProt Q8R4B8: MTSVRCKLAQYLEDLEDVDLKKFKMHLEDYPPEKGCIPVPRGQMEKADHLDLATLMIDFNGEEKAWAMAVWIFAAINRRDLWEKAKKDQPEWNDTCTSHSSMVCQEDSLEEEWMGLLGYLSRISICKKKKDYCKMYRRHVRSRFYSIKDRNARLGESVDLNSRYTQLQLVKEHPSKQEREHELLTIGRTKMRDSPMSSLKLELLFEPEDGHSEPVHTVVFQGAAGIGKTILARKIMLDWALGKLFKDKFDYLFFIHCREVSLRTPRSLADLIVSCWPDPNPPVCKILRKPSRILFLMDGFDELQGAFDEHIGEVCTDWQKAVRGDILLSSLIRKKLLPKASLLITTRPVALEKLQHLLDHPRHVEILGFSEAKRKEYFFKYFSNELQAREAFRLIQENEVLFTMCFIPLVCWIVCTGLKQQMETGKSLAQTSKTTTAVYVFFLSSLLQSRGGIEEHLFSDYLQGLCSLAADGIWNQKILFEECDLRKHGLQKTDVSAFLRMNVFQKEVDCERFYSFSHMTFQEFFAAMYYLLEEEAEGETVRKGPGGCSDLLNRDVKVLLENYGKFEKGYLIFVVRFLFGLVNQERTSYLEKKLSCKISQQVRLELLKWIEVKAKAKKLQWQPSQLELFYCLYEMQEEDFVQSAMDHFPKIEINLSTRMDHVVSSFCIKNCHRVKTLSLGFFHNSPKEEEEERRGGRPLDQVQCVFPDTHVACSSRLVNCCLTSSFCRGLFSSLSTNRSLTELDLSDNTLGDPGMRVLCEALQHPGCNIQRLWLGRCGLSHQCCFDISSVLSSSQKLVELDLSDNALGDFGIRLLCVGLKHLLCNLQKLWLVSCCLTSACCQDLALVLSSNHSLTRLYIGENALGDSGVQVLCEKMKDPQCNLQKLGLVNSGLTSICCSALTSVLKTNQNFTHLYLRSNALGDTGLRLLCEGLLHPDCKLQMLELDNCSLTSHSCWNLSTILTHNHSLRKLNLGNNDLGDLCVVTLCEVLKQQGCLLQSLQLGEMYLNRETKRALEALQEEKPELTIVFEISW

The experiment deals with T1, caspase-1 (mouse (endogenous in J774.1)) (UniProt P29452).
T1 sequence: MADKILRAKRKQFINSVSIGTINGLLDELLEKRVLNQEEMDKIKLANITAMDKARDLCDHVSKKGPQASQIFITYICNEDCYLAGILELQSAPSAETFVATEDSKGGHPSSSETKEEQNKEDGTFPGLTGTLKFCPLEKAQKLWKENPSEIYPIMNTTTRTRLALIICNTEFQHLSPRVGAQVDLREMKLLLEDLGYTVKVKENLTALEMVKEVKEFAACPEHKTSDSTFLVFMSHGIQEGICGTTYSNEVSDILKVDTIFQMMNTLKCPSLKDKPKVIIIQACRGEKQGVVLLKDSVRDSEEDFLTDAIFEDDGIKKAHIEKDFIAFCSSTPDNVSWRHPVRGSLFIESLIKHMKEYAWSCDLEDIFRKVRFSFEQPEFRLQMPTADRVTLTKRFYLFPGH
As to the kind of experiment: co-IP; J774.1 cells primed with LPS (100 ng/mL, 5 h), then ATP (5 mM) with or without GSH (5 mM) or GSSG (5 mM) for 1.5 h; lysates in pull-down buffer (50 mM Hepes-NaOH pH 7.5, 15 mM NaCl, 1 mM EGTA, 150 mM MgCl2, 10% glycerol, 1% Triton X-100) precipitated overnight with anti-NLRP3 or anti-caspase-1 (p20) antibody and protein G agarose at 4 °C; Western blotting. Background: A western blot detects proteins with antibodies after separation by electrophoresis.

Results are given in words; binding and its absence hold for the method and conditions named. Binding seen in cells or lysates may run through a third protein. Some entries that bind do so weakly or less than the wild type.

Take “nod-like receptor protein 3 (from UniProt Q8R4B8 1-1033)”: the binding result is “binds”.
